{
  "sequences": {"note": "The chains behind the UniProt entries cited, without tags or fusion partners.", "UniProt Q9QUI0": "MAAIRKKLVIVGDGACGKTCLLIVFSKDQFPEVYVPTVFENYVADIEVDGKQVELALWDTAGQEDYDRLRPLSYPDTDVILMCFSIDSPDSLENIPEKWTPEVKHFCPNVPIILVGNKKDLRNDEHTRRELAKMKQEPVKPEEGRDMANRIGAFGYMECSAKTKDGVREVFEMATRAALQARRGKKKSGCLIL", "UniProt Q6PDN3": "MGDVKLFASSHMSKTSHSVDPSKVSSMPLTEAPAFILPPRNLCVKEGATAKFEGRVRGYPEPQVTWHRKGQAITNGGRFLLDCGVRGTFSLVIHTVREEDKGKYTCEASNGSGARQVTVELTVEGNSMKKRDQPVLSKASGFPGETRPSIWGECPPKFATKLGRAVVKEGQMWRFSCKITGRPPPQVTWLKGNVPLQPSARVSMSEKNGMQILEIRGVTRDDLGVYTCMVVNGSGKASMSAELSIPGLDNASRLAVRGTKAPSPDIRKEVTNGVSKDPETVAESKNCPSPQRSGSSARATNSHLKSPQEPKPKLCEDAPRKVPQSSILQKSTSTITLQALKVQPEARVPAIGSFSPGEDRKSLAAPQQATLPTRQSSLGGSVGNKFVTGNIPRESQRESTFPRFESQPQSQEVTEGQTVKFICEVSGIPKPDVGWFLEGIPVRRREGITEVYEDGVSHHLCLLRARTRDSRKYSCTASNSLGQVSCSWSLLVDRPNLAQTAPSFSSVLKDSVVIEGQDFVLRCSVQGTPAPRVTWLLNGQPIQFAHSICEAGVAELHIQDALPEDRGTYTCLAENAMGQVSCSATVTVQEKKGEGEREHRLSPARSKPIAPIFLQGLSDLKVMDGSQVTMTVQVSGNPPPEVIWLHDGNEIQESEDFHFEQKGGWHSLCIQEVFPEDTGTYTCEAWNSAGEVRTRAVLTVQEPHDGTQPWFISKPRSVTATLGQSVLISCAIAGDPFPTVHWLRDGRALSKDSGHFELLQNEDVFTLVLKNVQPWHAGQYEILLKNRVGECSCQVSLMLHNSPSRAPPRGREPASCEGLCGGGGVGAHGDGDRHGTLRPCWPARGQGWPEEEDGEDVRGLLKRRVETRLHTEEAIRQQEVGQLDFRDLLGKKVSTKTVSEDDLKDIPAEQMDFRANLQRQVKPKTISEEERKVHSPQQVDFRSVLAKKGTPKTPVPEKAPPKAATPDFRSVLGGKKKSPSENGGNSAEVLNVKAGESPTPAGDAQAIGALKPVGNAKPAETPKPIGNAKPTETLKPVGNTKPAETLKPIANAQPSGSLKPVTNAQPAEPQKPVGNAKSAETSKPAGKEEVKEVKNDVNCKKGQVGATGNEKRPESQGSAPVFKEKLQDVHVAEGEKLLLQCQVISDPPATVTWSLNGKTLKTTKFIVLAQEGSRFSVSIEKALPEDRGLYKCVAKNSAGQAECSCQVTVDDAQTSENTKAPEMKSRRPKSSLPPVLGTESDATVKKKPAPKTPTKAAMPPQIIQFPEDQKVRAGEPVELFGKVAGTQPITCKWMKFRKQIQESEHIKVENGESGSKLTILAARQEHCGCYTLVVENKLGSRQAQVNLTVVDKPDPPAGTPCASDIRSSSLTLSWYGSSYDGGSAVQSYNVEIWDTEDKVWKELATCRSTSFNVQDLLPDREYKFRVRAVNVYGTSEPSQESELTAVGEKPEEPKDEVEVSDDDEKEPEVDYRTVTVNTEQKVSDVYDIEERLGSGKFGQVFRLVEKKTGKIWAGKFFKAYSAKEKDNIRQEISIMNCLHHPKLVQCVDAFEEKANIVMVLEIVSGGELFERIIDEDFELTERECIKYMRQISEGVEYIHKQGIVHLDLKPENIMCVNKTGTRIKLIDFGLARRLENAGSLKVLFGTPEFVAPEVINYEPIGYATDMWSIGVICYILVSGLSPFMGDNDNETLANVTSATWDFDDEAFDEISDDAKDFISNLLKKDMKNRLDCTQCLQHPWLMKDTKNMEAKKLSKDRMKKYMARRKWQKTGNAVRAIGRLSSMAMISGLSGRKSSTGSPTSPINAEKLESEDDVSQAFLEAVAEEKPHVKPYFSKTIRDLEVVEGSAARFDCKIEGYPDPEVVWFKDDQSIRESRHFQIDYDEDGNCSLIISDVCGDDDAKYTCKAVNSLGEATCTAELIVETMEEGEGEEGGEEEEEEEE", "UniProt Q9EQU5": "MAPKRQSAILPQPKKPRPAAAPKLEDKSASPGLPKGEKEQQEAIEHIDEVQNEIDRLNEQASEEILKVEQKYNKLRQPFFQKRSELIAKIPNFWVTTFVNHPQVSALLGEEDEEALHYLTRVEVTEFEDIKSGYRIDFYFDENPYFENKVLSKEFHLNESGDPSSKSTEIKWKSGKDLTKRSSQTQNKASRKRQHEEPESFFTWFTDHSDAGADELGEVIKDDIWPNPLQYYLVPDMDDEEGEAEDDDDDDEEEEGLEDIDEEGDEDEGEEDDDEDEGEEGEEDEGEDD", "UniProt P97820": "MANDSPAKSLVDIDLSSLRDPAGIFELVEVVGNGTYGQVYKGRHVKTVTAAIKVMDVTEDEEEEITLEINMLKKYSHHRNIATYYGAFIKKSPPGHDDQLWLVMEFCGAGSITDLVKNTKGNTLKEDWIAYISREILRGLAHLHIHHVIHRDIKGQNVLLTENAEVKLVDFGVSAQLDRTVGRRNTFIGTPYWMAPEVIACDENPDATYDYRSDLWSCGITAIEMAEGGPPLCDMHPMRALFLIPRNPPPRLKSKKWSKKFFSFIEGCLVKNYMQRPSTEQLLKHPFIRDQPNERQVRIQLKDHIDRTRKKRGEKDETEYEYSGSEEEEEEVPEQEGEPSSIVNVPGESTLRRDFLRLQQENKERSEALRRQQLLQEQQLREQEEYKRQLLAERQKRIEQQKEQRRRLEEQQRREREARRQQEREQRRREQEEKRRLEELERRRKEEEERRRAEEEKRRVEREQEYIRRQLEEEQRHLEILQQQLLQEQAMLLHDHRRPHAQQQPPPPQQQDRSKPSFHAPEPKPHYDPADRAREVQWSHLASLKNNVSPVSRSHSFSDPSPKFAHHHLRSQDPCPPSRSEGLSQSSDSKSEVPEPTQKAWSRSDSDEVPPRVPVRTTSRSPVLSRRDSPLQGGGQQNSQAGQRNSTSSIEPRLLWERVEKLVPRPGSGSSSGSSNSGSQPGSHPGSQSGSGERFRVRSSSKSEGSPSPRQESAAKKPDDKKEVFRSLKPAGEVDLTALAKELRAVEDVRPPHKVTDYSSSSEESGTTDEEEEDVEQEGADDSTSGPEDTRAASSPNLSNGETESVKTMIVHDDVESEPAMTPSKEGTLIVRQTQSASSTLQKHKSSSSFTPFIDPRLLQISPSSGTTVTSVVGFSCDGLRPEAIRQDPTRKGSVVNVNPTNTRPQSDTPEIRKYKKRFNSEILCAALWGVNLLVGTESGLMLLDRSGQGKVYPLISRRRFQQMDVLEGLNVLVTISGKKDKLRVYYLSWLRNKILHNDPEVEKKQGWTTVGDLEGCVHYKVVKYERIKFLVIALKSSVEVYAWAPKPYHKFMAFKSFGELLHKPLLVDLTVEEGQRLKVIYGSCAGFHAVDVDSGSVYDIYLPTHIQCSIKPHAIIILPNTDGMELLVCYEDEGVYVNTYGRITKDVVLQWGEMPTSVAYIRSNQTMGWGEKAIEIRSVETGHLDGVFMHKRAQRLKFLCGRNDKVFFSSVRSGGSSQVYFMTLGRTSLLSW"},
  "source": "paper PMC9546906",
  "key": {"[1]": {"target": "RhoA (endogenous, active GTP-bound form) (mouse (endogenous in mouse aortic VSMCs)) (UniProt Q9QUI0)", "test": "pull-down; extracts of control VSMCs after saline or AngII incubated overnight at 4 °C with GST-mDia Rho-binding domain on glutathione Sepharose to collect GTP-bound RhoA; 50 mmol/L Tris/HCl pH 7.5, 0.5 mol/L NaCl, 10 mmol/L MgCl2, 1% Triton X-100; western blot with anti-Set and anti-RhoA"}, "[2]": {"target": "myosin light chain kinase (MYLK) (mouse (endogenous in mouse aortic VSMCs)) (UniProt Q6PDN3)", "test": "co-IP; lysates of mouse aortic VSMCs, pre-cleared with protein G Sepharose, indicated primary antibody overnight at 4 °C, protein G Sepharose 2 h, washed with RIPA buffer, western blot; IgG as negative control"}},
  "note": "Results are given in words; binding and its absence hold for the method and conditions named. Binding seen in cells or lysates may run through a third protein. Some entries that bind do so weakly or less than the wild type.",
  "data": [
    {"substance": "Set (endogenous) (from UniProt Q9EQU5 1-289)", "values": [
      {"measurement": "binding", "setting": "[1]", "result": "binds"}
    ]},
    {"substance": "mitogen-activated protein kinase kinase kinase kinase 4 (MAP4K4) (from UniProt P97820 1-1233) (enzyme)", "values": [
      {"measurement": "binding", "setting": "[2]", "result": "binds"}
    ]}
  ]
}
